{"source": "paper PMC5334642", "about": "(Scientific Reports, 2017)", "key": {"[1]": {"assay": "general procedure: Fmoc solid-phase peptide synthesis; Wang resin preloaded with the first Fmoc-protected amino acid (0.69 mmol g^-1); HBTU / DIPEA", "conditions": "whole synthesis"}, "[2]": {"assay": "general procedure: Fmoc solid-phase peptide synthesis; Wang resin; HBTU / DIPEA", "conditions": "whole synthesis, scale 0.25 mmol"}}}
{"substance": "N- Val3-His-Gly-Val3", "values": [{"measurement": "isolated mass", "setting": "[1]", "value": 38, "unit": "mg"}, {"measurement": "isolated yield", "setting": "[1]; scale of the general procedure 0.25 mmol", "value": 19, "unit": "%"}]}
{"substance": "N-Octanoic acid-Val3-His-Gly-Val3", "values": [{"measurement": "isolated mass", "setting": "[2]", "value": 52, "unit": "mg"}, {"measurement": "isolated yield", "setting": "[2]", "value": 22, "unit": "%"}]}
